Values of other authors as cited in US20070141636A1 (priority 2003, published 2007).
At least one structure is not confirmed: it was looked up by name or label, or the drawing left a doubt.

Test system: LnCap cells
Details: LnCap AR with residue 877 threonine to alanine mutation; cited from earlier work

## C[C@]12CC[C@@H]3c4ccc(O)cc4CC[C@H]3[C@@H]1CC[C@@H]2O [Estradiol]
  stimulation of LnCap cell growth through the AR: able to stimulate cell growth
